{
  "source": "patent US11622991B2",
  "about": "“Protocol for treatment of lupus nephritis” (Aurinia Pharmaceuticals Inc., priority 2017, dated 2023)",
  "origin": "cited, not measured here",
  "test_system": "lupus nephritis",
  "settings": "standard of care for LN; cited from earlier work",
  "note": "Some of these results come from one statement about several compounds together.",
  "data": [
    {"smiles": "COc1c(C)c2c(c(O)c1C/C=C(\\C)CCC(=O)OCCN1CCOCC1)C(=O)OC2", "note": "[mycophenolate mofetil]", "values": [
      {"measurement": "complete remission, subjects", "value": "less than 10%"}
    ]}
  ]
}
